Test results: PubChem BioAssay AID743255 (National Center for Advancing Translational Sciences (NCATS), 2014)
The whole screen tested about 390,000 compounds, of which about 910 (0.23%) were called active. Inconclusive results, whose numbers are uncertain, are shown with a selection of clear calls. Calls follow the shape of the dose curve; as a rule, active = well fitted inhibition curve with a large enough effect; inconclusive = small, poorly fitted or top-dose-only effect; inactive = no such curve, though single readings can be large or run the other way. Where the call is inconclusive, the potency comes from a doubtful curve fit.

Chains of the proteins cited; added tags and fusions are not shown. Lines headed by an entry give the natural chain unless they say otherwise; changes in a name come on top.
UniProt O94782: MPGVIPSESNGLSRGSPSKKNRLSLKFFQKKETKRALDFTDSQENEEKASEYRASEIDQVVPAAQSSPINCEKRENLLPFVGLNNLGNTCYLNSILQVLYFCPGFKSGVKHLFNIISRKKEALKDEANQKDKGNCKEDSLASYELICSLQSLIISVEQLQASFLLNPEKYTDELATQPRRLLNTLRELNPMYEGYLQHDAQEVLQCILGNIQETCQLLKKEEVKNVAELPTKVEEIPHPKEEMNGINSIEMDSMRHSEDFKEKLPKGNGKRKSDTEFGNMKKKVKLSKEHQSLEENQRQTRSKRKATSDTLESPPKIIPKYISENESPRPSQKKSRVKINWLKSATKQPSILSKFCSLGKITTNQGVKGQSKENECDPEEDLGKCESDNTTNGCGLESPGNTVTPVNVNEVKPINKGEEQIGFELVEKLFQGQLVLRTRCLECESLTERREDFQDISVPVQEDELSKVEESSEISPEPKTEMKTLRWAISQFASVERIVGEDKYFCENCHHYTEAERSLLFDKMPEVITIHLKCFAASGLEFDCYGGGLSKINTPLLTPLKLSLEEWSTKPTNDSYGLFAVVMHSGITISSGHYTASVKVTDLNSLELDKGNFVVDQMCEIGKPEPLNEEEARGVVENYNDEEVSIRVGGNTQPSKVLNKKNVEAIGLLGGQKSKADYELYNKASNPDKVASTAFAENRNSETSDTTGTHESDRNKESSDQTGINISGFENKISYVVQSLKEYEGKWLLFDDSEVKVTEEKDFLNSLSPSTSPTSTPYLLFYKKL

What follows are molecules tested against Ubiquitin carboxyl-terminal hydrolase 1 (Homo sapiens) (UniProt O94782) (assay: Inhibitors of USP1/UAF1: Primary Screen). Conditions: recombinant USP1/UAF1, Ub-Rhodamine cleavage fluorescence; activity change, negative = inhibition: at 57.1 µM (top of the series).
Outline: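 USP1/UAF1 complex at 1 nM was preincubated with compound for 15 min at room temperature, then Ub-Rho substrate (150nM final) was added. Fluorescence (480/540 nm) was read kinetically, 6 reads every 60 seconds.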
% is scaled to controls: 0 for no effect and ±100 for the full control effect; potency is read from the fitted curve at half-maximal effect.
Also: nearly all actives have a fitted effect of over 60% in size.

Activity change, negative = inhibition, inactive:
Cc1ccc(CNC(=O)c2cc(=O)c3ccc(C)cc3o2)cc1 -13.5%
Cc1oc(-c2ccc(C(=O)NCCc3ccc(Cl)cc3)cc2)nc1CSc1ccccc1 -17.6%
c1ccc(Nc2cccc3c(Nc4ccccc4)cccc23)cc1 -20.5%
Cc1ccc(OCC(=O)N2CCN(C(=O)c3ccc([N+](=O)[O-])cc3)CC2)cc1 -13.3%
CCOc1ccc(CN(C(=O)c2nc(SC)ncc2Cl)C2CCS(=O)(=O)C2)cc1 (stereo unspecified) -20.1%
CCOC(=O)C1=C(C)OC(N)=C(C#N)C1c1ccc(C)o1 (stereo unspecified) 0.81%
N/C(=N\OC(=O)Cc1ccccc1)c1ccccn1 4.27%
O=C1C2C3C=CC(C4CC34)C2C(=O)N1/N=C/c1ccc(-c2ccc([N+](=O)[O-])cc2)o1 (stereo unspecified) -0.953%
COc1cc(OC)c2c(-c3ccccc3)cc(=O)oc2c1C(CCN1CCN(c2ccccc2)CC1)c1ccc(N(C)C)cc1 (stereo unspecified) -19.5%
CCC(=O)Nc1ccccc1-c1nc2ccccc2n(C(C)C(=O)Nc2cccc(Cl)c2C)c1=O (stereo unspecified) -6.27%
CCOc1cc(C2C(C#N)=C(N)SC(N)=C2C#N)ccc1OCCN1CCOCC1 -7.51%
COc1ccc(NC(=O)CN(C)C(=O)c2ccc(N3CCCCC3)c([N+](=O)[O-])c2)cc1 -2.68%
COc1ccc(Nc2ncc(C(=O)Nc3ccc(F)cc3F)c3ccccc23)cc1 -26.3%
CCOc1ccccc1CN1CCNC(=O)C1CC(=O)NC1CCCCC1 (stereo unspecified) -8.82%
CSc1ccc(C2C(C#N)=C(N)N(c3ccccc3)C3=C2C(=O)CCC3)cc1 (stereo unspecified) -15.5%
Cc1ccc(-n2ncc(C(=O)Nc3ccc(Cl)cc3)c2C2CCNCC2)cc1C -7.43%
COc1ccc(CCNc2ncnc3c2c(-c2ccccc2)cn3-c2cccc(Cl)c2)cc1OC 8.78%
Cc1cc(Nc2ccccc2)n(-c2nc3ccccc3[nH]2)n1 -16.5%
Cc1c(C(=O)NCCc2ccccc2)cccc1-n1cnc2cccnc21 -23.4%
COc1cc(C2CC(=O)Oc3c(C(CCN4CCCC(C)C4)c4ccc(N(C)C)cc4)c(OC)cc(OC)c32)cc(OC)c1OC (stereo unspecified) -33.1%
O=C(NCC1CCN(Cc2cccc(F)c2)CC1)c1cc2ccc3cccnc3c2[nH]1 -18.2%
Clc1ccc(C2Nc3cccc4cccc(c34)N2)c(Cl)c1 -25.5%

Activity change, negative = inhibition, inconclusive:
CCOc1ccc(C(=O)NCCC2=CCCCC2)cc1OCC -28% [inhibitor]

Potency, inconclusive:
COc1cccc(CNc2ccc(N3CCCCC3)cc2)c1OC 39.8 µM [inhibitor, partial curve]
O=C(Cn1cc(SCc2ccccc2)c2ccccc21)N1CCCCCC1 50.1 µM [inhibitor, partial curve, poor fit]
c1ccc(CCc2nn3c(C4COc5ccccc5O4)nnc3s2)cc1 (stereo unspecified) 39.8 µM [inhibitor, partial curve, poor fit]
O=C(CCSc1nnc(-c2ccco2)o1)N1CCOCC1 5.62 µM [inhibitor, full curve, poor fit]
COC(=O)c1cc2cc(OC)ccc2n1C 25.1 µM [inhibitor, partial curve]
CCCCOC(=O)C1=C(C)N(C)C(=O)NC1c1cc2c(cc1Br)OCO2 (stereo unspecified) 0.282 µM [inhibitor, full curve, poor fit]
CC(=O)NNC(=O)c1csc(-c2csc(C)n2)n1 39.8 µM [inhibitor, partial curve, poor fit]
CC1CCCCN1CCCNC(=O)c1ccc2c(c1)sc1nc(-c3ccc(F)cc3)cn12 (stereo unspecified) 20 µM [inhibitor, partial curve, poor fit]
N#Cc1c2nc3ccccc3nc2n2cc(NC(=O)c3ccc(F)cc3)ccc12 31.6 µM [inhibitor, single point]
O=C(C(Cl)Cl)N1CC2CCC(CC2)C1 28.2 µM [inhibitor, single point]
CCOC(=O)N1CCc2c(sc(NC(=O)C3COc4ccccc4O3)c2C(N)=O)C1 (stereo unspecified) 100 µM [inhibitor, partial curve, poor fit]
COc1cccc(CNC(=O)CSc2n[nH]c(-c3ccccc3Cl)n2)c1OC 0.112 µM [inhibitor, full curve, poor fit]
COc1cccc(C2=C(C(C)=O)Sc3nnc(C4CCCCC4)n3N2C(C)=O)c1 6.31 µM [inhibitor, partial curve]
Cc1cccc(N2CC(c3nc4ccccc4n3CCC3CCCCC3)CC2=O)c1 (stereo unspecified) 100 µM [inhibitor, partial curve, poor fit]
CC(C)c1cc(C(=O)NC(C)c2ccccc2)no1 (stereo unspecified) 11.2 µM [inhibitor, full curve, poor fit]
CN(Cc1ccccc1)C(=O)c1ccc(NC(=O)Cc2ccc(NC(=O)C3CCCN(C(=O)C4CCC4)C3)cc2)cc1 (stereo unspecified) 79.4 µM [inhibitor, partial curve, poor fit]
COC(=O)C1=CN(Cc2cccs2)C=C(C(=O)OC)C1c1ccc(OC)cc1OC 22.4 µM [inhibitor, partial curve]
COc1ccc(N/C=C/C(=O)c2sc(-c3ccccc3)nc2C)cc1 31.6 µM [inhibitor, single point]
COc1ccc(NC(=O)Nc2cccc(OCc3cc(=O)n4cccc(C)c4n3)c2)c(OC)c1 224 µM [inhibitor, partial curve, poor fit]
O=C(N[C@@H]1C/C=C\C[C@H](CC(=O)N(CCO)Cc2ccccc2)C(=O)N[C@@H](Cc2c[nH]c3ccccc23)COC1=O)OCC1c2ccccc2-c2ccccc21 28.2 µM [inhibitor, partial curve, poor fit]
CCCCCC(=O)Nc1cc(S(=O)(=O)O)cc2cc(S(=O)(=O)O)cc(O)c12 35.5 µM [inhibitor, single point]
CCOc1cc(CNc2ccc3c(c2)OCCO3)cc(Br)c1OCC(N)=O 3.55 µM [inhibitor, partial curve]
O=C(COC(=O)c1cccc(F)c1)NCCC1=CCCCC1 6.31 µM [inhibitor, single point]
CCC(=O)N1CCc2cc(Br)cc(S(=O)(=O)CCC(=O)N3CCN(c4ccc(OC)cc4)CC3)c21 6.31 µM [inhibitor, single point]
CC(=O)c1ccc(N2CCN(c3nc4c(S(=O)(=O)c5ccc(C)c(C)c5)nnn4c4ccc(Cl)cc34)CC2)cc1 7.08 µM [inhibitor, single point]
COc1ccc(-c2cc(C(=O)NCc3ccc(F)cc3)no2)cc1 7.08 µM [inhibitor, partial curve]
NS(=O)(=O)c1cc2c(cc1Cl)NC(CC1CCCC1)NS2(=O)=O (stereo unspecified) 39.8 µM [inhibitor, partial curve, poor fit]
O=C(CNC(=O)c1cccs1)NCCN1CCN(c2ccccc2F)CC1 7.08 µM [inhibitor, full curve]
CC(NC(=O)NC12CC3CC(CC(C3)C1)C2)c1ccc2c(c1)OCO2 (stereo unspecified) 0.282 µM [inhibitor, full curve]
COc1ccc2c(c1)C1=NN(/C(C)=C/C(C)=O)C(c3ccc(F)cc3)C1CC2 (stereo unspecified) 39.8 µM [inhibitor, single point]
O=C(CSc1nc2ccccc2nc1Cc1ccc(Cl)cc1)N1CCCCC1 0.398 µM [inhibitor, full curve, poor fit]
CSc1ccc(CCNC(=O)c2c(C)nn(-c3ccc(F)cc3)c2-n2cccc2)cc1 112 µM [inhibitor, partial curve, poor fit]
C=CCNC(=O)C1CC1(c1cccc(C)c1)c1cccc(C)c1 (stereo unspecified) 5.01 µM [inhibitor, partial curve]
Cc1ccccc1C(=O)Nc1sc2c(c1C(=O)N1CCCCC1)CCC(C(C)(C)C)C2 (stereo unspecified) 2.24 µM [inhibitor, full curve, poor fit]
Cc1cccn2c(=O)cc(CSc3nnc(NC(=O)C(C)C)s3)nc12 50.1 µM [inhibitor, single point]
Cc1c(Cl)c([N+](=O)[O-])nn1CC(=O)NCC(C)C 1.78 µM [inhibitor, partial curve]
Cc1ccc(NC(=O)c2ccc(CN3CCc4ccccc4C3)cc2)cc1 39.8 µM [inhibitor, partial curve]
Cc1cccc(C)c1NC(=O)Nc1ccc(S(N)(=O)=O)cc1 44.7 µM [inhibitor, partial curve, poor fit]
Cc1nn(CC(=O)N2CCN(c3ccccc3)CC2)c(=O)c2cc3cc(F)ccc3n12 3.55 µM [inhibitor, full curve, poor fit]
COC(=O)c1sccc1NC(=O)c1ccccc1F 44.7 µM [inhibitor, partial curve, poor fit]
O=C(O)c1cccc(CN2C(=O)S/C(=C/c3ccccc3[N+](=O)[O-])C2=O)c1 28.2 µM [inhibitor, single point]
C[C@H](CO)N1C[C@H](C)[C@H](CN(C)S(=O)(=O)c2ccccc2C#N)OCc2cnnn2CCCC1=O 0.224 µM [inhibitor, full curve, poor fit]

A draw from above in order of SMILES length, high to low.
Potency, inconclusive:
O=C(N[C@@H]1C/C=C\C[C@H](CC(=O)N(CCO)Cc2ccccc2)C(=O)N[C@@H](Cc2c[nH]c3ccccc23)COC1=O)OCC1c2ccccc2-c2ccccc21 28.2 µM [inhibitor, partial curve, poor fit]
CC(=O)c1ccc(N2CCN(c3nc4c(S(=O)(=O)c5ccc(C)c(C)c5)nnn4c4ccc(Cl)cc34)CC2)cc1 7.08 µM [inhibitor, single point]
CN(Cc1ccccc1)C(=O)c1ccc(NC(=O)Cc2ccc(NC(=O)C3CCCN(C(=O)C4CCC4)C3)cc2)cc1 (stereo unspecified) 79.4 µM [inhibitor, partial curve, poor fit]
Cc1ccccc1C(=O)Nc1sc2c(c1C(=O)N1CCCCC1)CCC(C(C)(C)C)C2 (stereo unspecified) 2.24 µM [inhibitor, full curve, poor fit]
CCOC(=O)N1CCc2c(sc(NC(=O)C3COc4ccccc4O3)c2C(N)=O)C1 (stereo unspecified) 100 µM [inhibitor, partial curve, poor fit]
COC(=O)C1=CN(Cc2cccs2)C=C(C(=O)OC)C1c1ccc(OC)cc1OC 22.4 µM [inhibitor, partial curve]
CC(NC(=O)NC12CC3CC(CC(C3)C1)C2)c1ccc2c(c1)OCO2 (stereo unspecified) 0.282 µM [inhibitor, full curve]
CCOc1cc(CNc2ccc3c(c2)OCCO3)cc(Br)c1OCC(N)=O 3.55 µM [inhibitor, partial curve]
Cc1ccc(NC(=O)c2ccc(CN3CCc4ccccc4C3)cc2)cc1 39.8 µM [inhibitor, partial curve]
O=C(CNC(=O)c1cccs1)NCCN1CCN(c2ccccc2F)CC1 7.08 µM [inhibitor, full curve]
O=C(Cn1cc(SCc2ccccc2)c2ccccc21)N1CCCCCC1 50.1 µM [inhibitor, partial curve, poor fit]
C=CCNC(=O)C1CC1(c1cccc(C)c1)c1cccc(C)c1 (stereo unspecified) 5.01 µM [inhibitor, partial curve]
COc1cccc(CNc2ccc(N3CCCCC3)cc2)c1OC 39.8 µM [inhibitor, partial curve]
O=C(CCSc1nnc(-c2ccco2)o1)N1CCOCC1 5.62 µM [inhibitor, full curve, poor fit]

Following part:

Potency, active:
COc1cc2c(cc1OC)C(=O)C(Br)CC2 (stereo unspecified) 14.1 µM
